Test results: paper PMC9197937
These are yes or no findings as the source states them, for the method shown. Some entries that bind do so weakly or less than the wild type.

Biological target: T1, Strep-Pmt1 nascent chain stalled at the triple-proline motif (PPP construct) (S. cerevisiae) (UniProt P33775)
T1 sequence (chain, nascent chain-tRNA (NC-tRNA)): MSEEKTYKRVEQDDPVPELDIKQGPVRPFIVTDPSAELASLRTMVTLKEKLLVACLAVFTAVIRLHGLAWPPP
Experiment: cryo-EM structure; RNC-RAC sample: purified RNC-RAC supplemented with RAC (1:4); states C1-C4, State C2 at 3.0 Å (Map 3.5), RAC region by local refinement (Map 3.6); both purified

B1: Zuo1 of recombinant RAC (protein, UniProt P32527 1-433)
chain: MFSLPTLTSDITVEVNSSATKTPFVRRPVEPVGKFFLQHAQRTLRNHTWSEFERIEAEKNVKTVDESNVDPDELLFDTELADEDLLTHDARDWKTADLYAAMGLSKLRFRATESQIIKAHRKQVVKYHPDKQSAAGGSLDQDGFFKIIQKAFETLTDSNKRAQYDSCDFVADVPPPKKGTDYDFYEAWGPVFEAEARFSKKTPIPSLGNKDSSKKEVEQFYAFWHRFDSWRTFEFLDEDVPDDSSNRDHKRYIERKNKAARDKKKTADNARLVKLVERAVSEDPRIKMFKEEEKKEKERRKWEREAGARAEAEAKAKAEAEAKAKAESEAKANASAKADKKKAKEAAKAAKKKNKRAIRNSAKEADYFGDADKATTIDEQVGLIVDSLNDEELVSTADKIKANAAGAKEVLKESAKTIVDSGKLPSSLLSYFV
Question: For B1, which binding is on record?
Answer: binds
